# Results as given in paper PMC10435237.
# Chains of the proteins cited; added tags and fusions are not shown. Lines headed by an entry give the natural chain unless they say otherwise; changes in a name come on top.
# UniProt Q86U44: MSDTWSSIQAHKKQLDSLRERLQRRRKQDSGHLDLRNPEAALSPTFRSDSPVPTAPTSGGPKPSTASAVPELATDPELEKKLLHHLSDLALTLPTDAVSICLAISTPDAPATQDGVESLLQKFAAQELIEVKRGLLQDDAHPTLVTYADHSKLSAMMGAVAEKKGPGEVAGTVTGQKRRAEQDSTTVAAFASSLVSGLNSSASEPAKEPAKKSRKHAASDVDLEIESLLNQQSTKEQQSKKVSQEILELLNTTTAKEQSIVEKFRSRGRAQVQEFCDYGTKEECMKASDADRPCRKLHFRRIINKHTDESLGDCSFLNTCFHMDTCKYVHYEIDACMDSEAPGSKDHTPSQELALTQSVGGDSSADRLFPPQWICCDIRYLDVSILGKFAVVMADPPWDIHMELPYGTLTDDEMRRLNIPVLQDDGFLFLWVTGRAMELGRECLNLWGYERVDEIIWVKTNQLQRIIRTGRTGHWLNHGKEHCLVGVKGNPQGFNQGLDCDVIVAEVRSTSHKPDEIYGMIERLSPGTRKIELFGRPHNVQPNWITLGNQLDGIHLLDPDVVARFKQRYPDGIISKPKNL
# UniProt O75832: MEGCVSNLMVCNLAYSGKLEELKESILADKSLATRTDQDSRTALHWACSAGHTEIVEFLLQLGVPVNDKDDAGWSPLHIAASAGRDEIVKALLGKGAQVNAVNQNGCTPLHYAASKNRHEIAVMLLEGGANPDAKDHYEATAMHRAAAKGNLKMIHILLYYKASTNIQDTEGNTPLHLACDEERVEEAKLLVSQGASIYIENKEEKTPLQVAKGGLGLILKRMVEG
# UniProt P62195: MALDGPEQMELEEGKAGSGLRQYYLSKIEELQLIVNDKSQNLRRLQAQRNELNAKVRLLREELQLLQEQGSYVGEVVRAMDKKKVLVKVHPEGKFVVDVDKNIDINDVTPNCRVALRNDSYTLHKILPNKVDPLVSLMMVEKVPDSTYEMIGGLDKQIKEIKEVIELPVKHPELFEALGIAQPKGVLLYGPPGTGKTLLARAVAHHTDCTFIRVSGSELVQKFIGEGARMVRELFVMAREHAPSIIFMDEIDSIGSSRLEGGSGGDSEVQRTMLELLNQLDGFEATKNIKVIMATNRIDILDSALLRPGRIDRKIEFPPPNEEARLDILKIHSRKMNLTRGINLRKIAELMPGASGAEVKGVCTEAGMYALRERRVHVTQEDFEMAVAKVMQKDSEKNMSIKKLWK
# UniProt P17980: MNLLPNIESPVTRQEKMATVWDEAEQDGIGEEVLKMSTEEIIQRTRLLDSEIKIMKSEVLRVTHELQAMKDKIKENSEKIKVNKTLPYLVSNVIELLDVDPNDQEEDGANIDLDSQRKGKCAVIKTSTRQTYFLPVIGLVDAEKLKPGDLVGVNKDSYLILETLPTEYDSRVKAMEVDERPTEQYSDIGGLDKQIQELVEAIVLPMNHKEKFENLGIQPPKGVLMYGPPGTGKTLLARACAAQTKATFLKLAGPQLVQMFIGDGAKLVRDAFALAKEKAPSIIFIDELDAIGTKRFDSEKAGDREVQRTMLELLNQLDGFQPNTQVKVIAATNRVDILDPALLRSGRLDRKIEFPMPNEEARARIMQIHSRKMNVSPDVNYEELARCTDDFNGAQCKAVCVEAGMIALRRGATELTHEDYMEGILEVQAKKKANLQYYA
# No constants are given. Whether binding was seen depends on the method and setting. In cells and extracts the contact can be indirect. Some entries that bind do so weakly or less than the wild type.
# B1: METTL14, transfected (protein, UniProt Q9HCE5 1-456)
# chain: MDSRLQEIRERQKLRRQLLAQQLGAESADSIGAVLNSKDEQREIAETRETCRASYDTSAPNAKRKYLDEGETDEDKMEEYKDELEMQQDEENLPYEEEIYKDSSTFLKGTQSLNPHNDYCQHFVDTGHRPQNFIRDVGLADRFEEYPKLRELIRLKDELIAKSNTPPMYLQADIEAFDIRELTPKFDVILLEPPLEEYYRETGITANEKCWTWDDIMKLEIDEIAAPRSFIFLWCGSGEGLDLGRVCLRKWGYRRCEDICWIKTNKNNPGKTKTLDPKAVFQRTKEHCLMGIKGTVKRSTDGDFIHANVDIDLIITEEPEIGNIEKPVEIFHIIEHFCLGRRRLHLFGRDSTIRPGWLTVGPTLTNSNYNAETYASYFSAPNSYLTGCTEEIERLRPKSPPPKSKSDRGGGAPRGGGRGGTSAGRGRERNRSNFRGERGGFRGGRGGAHRGGFPPR
# Experiments:
# METTL3-WT-Flag (human) [1] = target: METTL3-WT-Flag (human) (UniProt Q86U44); experiment: co-IP; T47D cells infected with METTL3-Flag or control vector; IP of METTL3-Flag, immunoblot (Figure 7g)
# METTL3-WT-Flag (human) [2] = target: METTL3-WT-Flag (human) (UniProt Q86U44); experiment: co-IP; 293T cells with METTL3 shRNA, transfected with full-length METTL3 or its truncations 1–238 and 239–580 (Figure 5e, Figure 5—figure supplement 1a–c)
# METTL14, transfected = METTL14, transfected (UniProt Q9HCE5); experiment: co-IP; 293T cells transfected with METTL3, METTL14 or WTAP containing different tags (Figures 5a, c, g-k); with or without RNase or DNase (5c); with or without shRNA against METTL3 (5g, 5i), METTL14 (5h) or WTAP (5j, 5k); lysis in EBC buffer, washes in NETN buffer
binding (METTL3-WT-Flag (human) [1]),other results,Molecule
binds,,PSMD10 (from UniProt O75832 1-226)
binds,,PSMC5 (from UniProt P62195 1-406)
,binding (METTL3-WT-Flag (human) [2]): binds,METTL3 C-terminal (239–580) truncation (from UniProt Q86U44 239-580) (domain or fragment)
binds,,PSMC3 (from UniProt P17980 1-439)
,"binding (METTL14, transfected): binds",B1
